These results are taken from publication doi:10.1101/089763.

These are yes or no findings as the source states them, for the method shown. In cells and extracts the contact can be indirect. Here binding means that the protein was enriched with, or labelled near, the bait; the list need not be complete.

This assay deals with T1, HRDE-1 (C. elegans (endogenous in whole animals)) (UniProt Q09249).
T1 sequence: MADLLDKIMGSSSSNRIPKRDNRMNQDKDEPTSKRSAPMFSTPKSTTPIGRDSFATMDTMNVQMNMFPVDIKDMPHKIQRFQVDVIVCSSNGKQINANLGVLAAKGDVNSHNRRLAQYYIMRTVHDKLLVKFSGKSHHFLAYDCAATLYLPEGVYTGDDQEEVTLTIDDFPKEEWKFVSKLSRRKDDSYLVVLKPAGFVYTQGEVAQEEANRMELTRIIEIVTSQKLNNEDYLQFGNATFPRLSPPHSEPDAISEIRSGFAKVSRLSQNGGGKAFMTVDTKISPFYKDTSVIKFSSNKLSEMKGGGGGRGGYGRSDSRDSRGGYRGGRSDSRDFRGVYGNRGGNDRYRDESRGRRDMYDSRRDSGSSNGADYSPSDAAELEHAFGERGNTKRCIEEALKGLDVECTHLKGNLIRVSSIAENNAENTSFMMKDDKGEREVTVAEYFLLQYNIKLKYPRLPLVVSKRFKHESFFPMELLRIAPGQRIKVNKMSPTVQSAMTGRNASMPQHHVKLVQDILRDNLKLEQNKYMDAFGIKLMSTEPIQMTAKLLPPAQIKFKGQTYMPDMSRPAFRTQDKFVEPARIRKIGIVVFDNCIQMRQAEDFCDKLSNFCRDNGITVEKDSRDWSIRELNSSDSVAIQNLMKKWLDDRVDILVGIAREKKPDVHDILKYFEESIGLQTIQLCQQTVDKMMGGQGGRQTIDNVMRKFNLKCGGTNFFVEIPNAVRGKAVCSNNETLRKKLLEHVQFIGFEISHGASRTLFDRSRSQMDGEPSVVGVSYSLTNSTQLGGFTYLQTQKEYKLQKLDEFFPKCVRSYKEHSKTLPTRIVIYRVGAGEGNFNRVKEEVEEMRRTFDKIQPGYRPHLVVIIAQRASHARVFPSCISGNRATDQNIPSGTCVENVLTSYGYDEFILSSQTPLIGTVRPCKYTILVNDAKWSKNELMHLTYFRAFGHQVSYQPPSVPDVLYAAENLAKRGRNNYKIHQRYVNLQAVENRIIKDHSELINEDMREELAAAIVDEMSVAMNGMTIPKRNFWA
The assay is described as follows: affinity purification with mass spectrometry.
With “Aquarius/EMB-4 (C. elegans (endogenous in whole animals))”, the binding result is reported as “binds”. The value for “eIF4A3 (exon-junction complex protein detected in HRDE-1 IPs) (C. elegans (endogenous in whole animals))” was “binds”. The value for “ALY (exon-junction complex protein detected in HRDE-1 IPs) (C. elegans (endogenous in whole animals))” was “binds”.
